This is an account of results in patent publication US5604098.

Construct, isoform or probe ends are uncertain for at least one entry.

The subject of series [1] is CGase I (Taq I and Hpa II in combination). Kind of series: enzyme reaction in vitro. The following applies: CGase buffer, purified native protein, only the motif is given.
Series [2] concerns the target Hpa II restriction endonuclease (UniProt P36433). In words: enzyme reaction in vitro. The following applies: Hpa II* conditions, purified native protein, only the motif is given.

On to ACGA (double strand) [ACGA site], for which, in series [1], the “activity on this sequence” value is “active”. On to ACGG (double strand) [ACGG (CCGT) site], for which the “activity on this sequence” value in series [1] and in series [2] was “active” throughout. CCGA (double strand) [CCGA (TCGG) site]: the “activity on this sequence” value in series [1] and in series [2] was “active” in each case. For CCGC (double strand) [CCGC (GCGG) site], the “activity on this sequence” value in series [1] and in series [2] was “active” each time. With CCGG (double strand) [CCGG site], the “activity on this sequence” value in series [1] is “active”; in series [2] (10 mM MgCl2, 15% DMSO, pH 8.5, 50 C) it was “active”. As for GCGC (double strand) [GCGC site], the “activity on this sequence” value in series [1] (Taq I 400 u and Hpa II 50 u per ug) is reported as “active”. On to GCGT (double strand) [GCGT site], for which the “activity on this sequence” value in series [1] is on record as “active”. Still for that read-out and setting: as for TCGA (double strand) [TCGA site], the entry is “active”.
